This passage reports binding results from paper PMC8274441.

Sequences of proteins named here, by UniProt entry; tags and fusion partners are left off. A change or cut given only in a name is not applied to a line headed by its entry. A line that says so, or that is headed by a name, gives the form on record, which may keep a tag or linker. Residues count along the entry.
UniProt P0A4G2, residues 20-309: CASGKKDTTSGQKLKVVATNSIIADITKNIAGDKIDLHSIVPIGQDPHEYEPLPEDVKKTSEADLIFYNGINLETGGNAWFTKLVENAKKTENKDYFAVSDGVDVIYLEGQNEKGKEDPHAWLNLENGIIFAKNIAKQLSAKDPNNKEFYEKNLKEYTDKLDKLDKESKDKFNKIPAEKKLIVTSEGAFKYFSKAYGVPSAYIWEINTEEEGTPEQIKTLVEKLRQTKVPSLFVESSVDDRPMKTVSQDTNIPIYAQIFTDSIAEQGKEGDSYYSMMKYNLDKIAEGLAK
UniProt P07355: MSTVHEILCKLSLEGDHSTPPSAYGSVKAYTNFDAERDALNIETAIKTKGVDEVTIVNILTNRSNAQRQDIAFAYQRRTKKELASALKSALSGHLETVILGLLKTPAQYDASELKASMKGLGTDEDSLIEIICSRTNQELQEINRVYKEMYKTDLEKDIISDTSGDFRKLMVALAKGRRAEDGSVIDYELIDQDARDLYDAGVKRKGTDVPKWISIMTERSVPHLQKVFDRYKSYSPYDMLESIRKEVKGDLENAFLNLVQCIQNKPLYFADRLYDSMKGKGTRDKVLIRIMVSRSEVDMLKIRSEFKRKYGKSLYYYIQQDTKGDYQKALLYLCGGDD
recombinant ANXA2 expressed in E. coli, 6x histidine tagged (P07355-2, form named): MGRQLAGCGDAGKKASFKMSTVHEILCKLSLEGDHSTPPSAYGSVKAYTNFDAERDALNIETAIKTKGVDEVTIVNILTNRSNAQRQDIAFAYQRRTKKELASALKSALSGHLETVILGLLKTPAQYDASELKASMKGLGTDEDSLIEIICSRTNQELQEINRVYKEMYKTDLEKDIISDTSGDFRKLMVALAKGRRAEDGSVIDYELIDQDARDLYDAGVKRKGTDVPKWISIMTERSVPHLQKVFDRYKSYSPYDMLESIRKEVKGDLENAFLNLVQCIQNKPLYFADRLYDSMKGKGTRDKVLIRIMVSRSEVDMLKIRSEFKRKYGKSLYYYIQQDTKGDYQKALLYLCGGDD
UniProt P02769, residues 25-607: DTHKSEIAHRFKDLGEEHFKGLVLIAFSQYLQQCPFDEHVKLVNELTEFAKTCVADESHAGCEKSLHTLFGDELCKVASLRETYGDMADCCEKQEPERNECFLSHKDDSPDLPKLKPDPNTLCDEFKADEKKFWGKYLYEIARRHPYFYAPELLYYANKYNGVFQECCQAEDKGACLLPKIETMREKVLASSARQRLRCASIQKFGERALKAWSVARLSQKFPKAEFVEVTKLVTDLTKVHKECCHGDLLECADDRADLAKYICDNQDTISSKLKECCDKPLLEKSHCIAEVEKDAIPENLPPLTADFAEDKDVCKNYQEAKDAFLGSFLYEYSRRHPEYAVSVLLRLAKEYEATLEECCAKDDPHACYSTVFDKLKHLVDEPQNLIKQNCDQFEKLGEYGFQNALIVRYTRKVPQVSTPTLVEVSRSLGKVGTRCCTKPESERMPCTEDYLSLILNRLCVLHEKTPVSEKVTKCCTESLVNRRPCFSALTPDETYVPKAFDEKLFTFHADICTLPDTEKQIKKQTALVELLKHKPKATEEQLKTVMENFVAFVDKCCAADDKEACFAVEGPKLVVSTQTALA

These are yes or no findings as the source states them, for the method shown. Some binding calls cover weakened binding; strength is not graded here.

Assay [1] addresses recombinant pneumococcal surface adhesin A (PsaA), 6x histidine tagged (Streptococcus pneumoniae strain TIGR4) (UniProt P0A4G2). The experiment in a line: pull-down; PsaA or BSA covalently attached to AminoLink Plus agarose beads (some PsaA-beads with 5 mM manganese sulfate), incubated with ~50 µg recombinant ANXA2 or BSA at 37°C for 1 hr, washed twice with PBS; Coomassie gel and anti-ANXA2 western blot; both purified. On the technique in general: Immunoblotting shows a protein as a band on a membrane.

Assay [2] concerns the target human annexin A2 (ANXA2) of Detroit 562 nasopharyngeal epithelial cells (human) (UniProt P07355). Briefly: far-Western, overlay or dot blot; Detroit 562 whole cell lysate proteins separated by 12.5% SDS-PAGE or 2DE, transferred to PVDF, renatured by step-wise reduction of guanidine-HCl, probed with 100 µg biotinylated PsaA in PBST with 2% skim milk overnight at 4 C; streptavidin-HRP, ECL; spot identified by mass spectrometry; only the binder purified.

In assay [3] the target is ANXA2 expressed in and secreted from HEK293 T/17 cells, 6x histidine tagged (human) (UniProt P07355). The experiment in a line: SEC; individual proteins in PBS with 2 mM DTT, incubated 1 hr at 25°C or 37°C; calibrated Superdex 200 10/300 GL at room temperature, 0.5 mL/min; both purified. A general note: Size exclusion chromatography separates by hydrodynamic size, large species first.

Assay [4] has as its target recombinant pneumococcal surface adhesin A (PsaA), 6x histidine tagged (Streptococcus pneumoniae strain TIGR4) (UniProt P0A4G2). The experiment in a line: SEC; 1:1 mixture of PsaA and ANXA2, each 0.18 mg/ml, in PBS with 2 mM DTT, incubated 1 hr at 37°C; Superdex 200 10/300 GL at room temperature, 0.5 mL/min; both purified.
Assay [5] deals with recombinant ANXA2 expressed in E. coli, 6x histidine tagged (human) (UniProt P07355). The experiment in a line: SEC; individual proteins in PBS with 2 mM DTT, incubated 1 hr at 25°C or 37°C; calibrated Superdex 200 10/300 GL at room temperature, 0.5 mL/min; both purified.
The target of assay [6] is recombinant pneumococcal surface adhesin A (PsaA), 6x histidine tagged (Streptococcus pneumoniae strain TIGR4) (UniProt P0A4G2). Briefly: SEC; both purified.

Regarding BSA (from UniProt P02769 25-607), the binding result in assay [1] is on record as “no binding (tested: ~50 µg)”. Consider “biotinylated recombinant PsaA (from UniProt P0A4G2 20-309)”, for which, in assay [2], the binding entry is listed as “binds”. In the case of “ANXA2 expressed in and secreted from HEK293 T/17 cells, 6x histidine tagged (from UniProt P07355-2 1-357)”, the binding entry in assay [3] was “no binding”; in assay [4] it was “binds”. For the substance “recombinant ANXA2 expressed in E. coli, 6x histidine tagged (from UniProt P07355-2 1-357)”, the figures for the binding entry in assay [5], in assay [4] and in assay [1] were “no binding”, “binds” and “binds”, respectively. Regarding “recombinant pneumococcal surface adhesin A (PsaA), 6x histidine tagged (from UniProt P0A4G2 20-309)”, the binding result in assay [6] is “no binding”.
